Values joined by “and” are separate entries in the source; they are usually repeats but may differ in a detail not shown here. Identical values can stand only once. Some of the results follow. Single values are uncertain here, since repeats match poorly.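 HEK293T cells were given each compound shortly before transfection with a reporter in which red mCherry is followed by the SARS-CoV-2 frameshift element and then GFP in the −1 frame, so GFP appears only after frameshifting.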
These compounds were tested on SARS-CoV-2 -1 PRF reporter mCherry-FSE-GFP(-1) (assay: mCherry (red) intensity as percent of control; higher = higher upstream reporter expression). Settings: 10 µM; 24 h; HEK293T.

Row | Compound | mCherry
1 | CC(=O)N[C@H](Cc1ccc2ccccc2c1)C(=O)N[C@H](Cc1ccc(Cl)cc1)C(=O)N[C@H](Cc1cccnc1)C(=O)N[C@@H](CO)C(=O)N[C@@H](Cc1ccc(O)cc1)C(=O)N[C@H](CCCNC(N)=O)C(=O)N[C@@H](CC(C)C)C(=O)N[C@@H](CCCNC(=N)N)C(=O)N1CCC[C@H]1C(=O)N[C@H](C)C(N)=O [Cetrotide] | 122%
2 | C[C@H](N[C@@H](CCc1ccccc1)C(=O)O)C(=O)N1C(=O)N(C)C[C@H]1C(=O)O [imidaprilat] | 81.3%
3 | COc1cc(OC)cc(OCCO)c1 [floverine] | 122%
4 | CNS(=O)(=O)Cc1ccc2[nH]cc(CCN(C)C)c2c1 [Sumatriptan Succinate] | 86.6%
5 | CC(C)Oc1ccc2c(=O)c(-c3ccccc3)coc2c1 | 90.6%
6 | CC(=O)OCC(=O)[C@@]1(O)CC[C@H]2[C@@H]3CCC4=CC(=O)CC[C@]4(C)C3=CC[C@@]21C [anecortave] | 74.7%
7 | CC(=O)OCC1=C(C(=O)O)N2C(=O)[C@@H](NC(=O)CC#N)[C@H]2SC1 [Celospor] | 98.6%
8 | O=C(O)C1(C(=O)O)CCC1.[NH2-].[NH2-].[Pt+2] [Carboplatin] | 74%
9 | O=C(O)C1(C(=O)O)CCC1.[NH2-].[NH2-].[Pt+2] | 105% and 95.7%
10 | CCCCC1C(=O)N(c2ccccc2)N(c2ccc(O)cc2)C1=O (stereo not given) [oxyphenbutazone] | 64.6%
11 | C[N+](C)(C)CCOC(N)=O [carbachol] | 91.5% and 99.6%
12 | CC(C)S(=O)(=O)n1c(N)nc2ccc(/C(=N/O)c3ccccc3)cc21 [enviroxime] | 33.4%
13 | CO/N=C(\C(=O)N[C@@H]1C(=O)N2C(C(=O)O)=C(COC(N)=O)CS[C@H]12)c1ccco1 | 103%
14 | NC[C@H]1O[C@H](O[C@H]2[C@H](O)[C@@H](O[C@H]3O[C@H](CO)[C@@H](O)[C@H](N)[C@H]3O)[C@H](N)C[C@@H]2N)[C@H](O)[C@@H](O)[C@@H]1O | 113%
15 | CCOc1ccc(S(=O)(=O)O)c2cccnc12 [actinoquinol] | 91.3%
16 | CC/C=C\C/C=C\C/C=C\C/C=C\C/C=C\C/C=C\CCC(=O)O [doconexent] | 95%
17 | O=C(O)Cn1c(C(=O)Nc2nc(-c3ccccc3Cl)cs2)cc2ccccc21 [lintitript] | 134%
18 | CNCCCN1c2ccccc2CCc2ccccc21 [desipramine] | 125%

Row | Compound | mCherry
19 | CC(=O)OCC(=O)[C@@]1(O)[C@@H](C)C[C@H]2[C@@H]3CCC4=CC(=O)C=C[C@]4(C)[C@@]3(F)[C@@H](O)C[C@@]21C | 105%
20 | CC/C=C\C/C=C\C/C=C\C/C=C\C/C=C\CCCC(=O)O [icosapent] | 102%
21 | C[C@]12CC[C@H]3C(=CCc4cc(O)ccc43)[C@@H]1CCC2=O [Equilin] | 93.1%
22 | CC(/C=C1\SC(=S)N(CC(=O)O)C1=O)=C\c1ccccc1 [epalrestat] | 98.5%
23 | CCCN(CC)C(CC)C(=O)Nc1c(C)cccc1C (stereo not given) [Etidocaine] | 96.1%
24 | CO/N=C(\C(=O)N[C@@H]1C(=O)N2C(C(=O)O)=C(CSc3nc(=O)c(O)nn3C)CS[C@H]12)c1csc(N)n1 [Rocephin] | 100%
25 | CC[C@@H]1C(=O)N(C)c2cnc(Nc3ccc(C(=O)NC4CCN(C)CC4)cc3OC)nc2N1C1CCCC1 | 674%
26 | O=C(Nc1ccccc1)c1ccccc1O | 87.2%
27 | CN1C2CCCC1CC(NC(=O)c1nn(C)c3ccccc13)C2 (stereo not given) [granisetron] | 117%
28 | CC(C)(C)NC(=O)N[C@H](C(=O)N1C[C@H]2[C@@H]([C@H]1C(=O)NC(CC1CCC1)C(=O)C(N)=O)C2(C)C)C(C)(C)C (stereo not given in full) [Boceprevir] | 49%
29 | Nc1nc(O)c2ncn(CCC(CO)CO)c2n1 | 90%
30 | CCCc1cc(=O)[nH]c(=S)[nH]1 [propylthiouracil] | 86.3%
31 | C[C@]12CC[C@@H]3c4ccc(O)cc4CC[C@H]3[C@@H]1CC[C@@H]2OP(=O)(O)O [polyestradiol phosphate] | 123%
32 | CC(=O)OC[C@H]1O[C@@H](n2ccc(=O)[nH]c2=O)[C@H](OC(C)=O)[C@@H]1OC(C)=O [Uridine triacetate] | 96.6%
33 | CCCCN1C[C@H](O)[C@@H](O)[C@H](O)[C@H]1CO [miglustat] | 94.3%
34 | CN1CCC[C@@H]1CCO[C@](C)(c1ccccc1)c1ccc(Cl)cc1 | 109%
35 | NCCCC[C@H](N[C@@H](CCc1ccccc1)C(=O)O)C(=O)N1CCC[C@H]1C(=O)O [lisinopril] | 90.8%

Source: the supplement of paper PMC8256030
